Data as given in PubChem BioAssay AID652272 (Drosophila RNAi Screening Center, 2013).
The deposit covers about 21,000 reagents; shown is an unselected part of those with a known target gene and a result. In the full data, 503 (2.4%) got an active call. 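Raw plate light values, not normalised; calls rest on replicate z-scores that were not deposited; hits include reporter decreases as well as increases.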 Names joined by + are all predicted targets of the reagent. Not given: the amount of reagent, the time to read-out.

Screen: 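Finding fly genes that regulate Hedgehog signal transduction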 (primary screen)
System: Drosophila clone 8 (Cl8) cells
Reagent: long dsRNA against Drosophila genes
Read-out: 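Plate reader light from a firefly reporter under a ptc promoter fragment that responds to Hedgehog, with Renilla light as transfection reference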
Direction: firefly Hh reporter signal: higher = more ptc reporter light; Renilla reference signal: higher = more Renilla control light
Rule for the call: 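Hit when the z-score averaged over two replicates is under -2 or over +3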
Calls: active = hit: reporter lowered or raised; inactive = not a hit

| predicted target | amplicon | firefly Hh reporter signal, replicate 1 | firefly Hh reporter signal, replicate 2 | firefly Hh reporter signal, replicate 3 | Renilla reference signal, replicate 1 | Renilla reference signal, replicate 2 | Outcome |
| --- | --- | --- | --- | --- | --- | --- | --- |
| Rap1 (Rap1 GTPase) | DRSC08686 | 1.06e5 | 53042 | – | 5181 | 2802 | inactive |
| CG33639 | DRSC19966 | 1.28e5 | 8.77e5 | 3.54e5 | 3529 | 6250 | inactive |
| CG17230 | DRSC15203 | 1.89e5 | 1.51e5 | – | 7072 | 5435 | inactive |
| CG7335 | DRSC10816 | 79760 | 1.57e5 | – | 2710 | 4199 | inactive |
| CG14636 | DRSC12223 | 84234 | 92327 | – | 3003 | 2809 | inactive |
| pain (painless) | DRSC04273 | 91693 | 36096 | – | 2208 | 3056 | inactive |
| Tpi (Triose phosphate isomerase) | DRSC16888 | 61699 | 67987 | – | 757 | 1968 | inactive |
| CG43902 | DRSC17850 | 1.47e5 | 3.44e5 | – | 4021 | 12518 | inactive |
| CG43902 | DRSC17999 | 59696 | 2.49e5 | – | 1734 | 7856 | inactive |

Quoted from the listing, 2 entries:
| predicted target | amplicon | firefly Hh reporter signal, replicate 1 | firefly Hh reporter signal, replicate 2 | firefly Hh reporter signal, replicate 3 | Renilla reference signal, replicate 1 | Renilla reference signal, replicate 2 | Outcome |
| --- | --- | --- | --- | --- | --- | --- | --- |
| pain (painless) | DRSC04273 | 91693 | 36096 | – | 2208 | 3056 | inactive |
| Tpi (Triose phosphate isomerase) | DRSC16888 | 61699 | 67987 | – | 757 | 1968 | inactive |

Continued:
| predicted target | amplicon | firefly Hh reporter signal, replicate 1 | firefly Hh reporter signal, replicate 2 | firefly Hh reporter signal, replicate 3 | Renilla reference signal, replicate 1 | Renilla reference signal, replicate 2 | Outcome |
| --- | --- | --- | --- | --- | --- | --- | --- |
| Obp83a (Odorant-binding protein 83a) | DRSC12362 | 65212 | 93184 | – | 2985 | 3229 | inactive |
| mRpS25 (mitochondrial ribosomal protein S25) | DRSC19598 | 1.13e5 | 2.92e5 | – | 3984 | 12091 | inactive |
| Opbp (Optix-binding protein) | DRSC04966 | 92893 | 53449 | – | 2560 | 5739 | inactive |
| lsn (larsen) | DRSC16081 | 7.73e5 | 1.66e5 | – | 45725 | 2400 | inactive |
| KCNQ (KCNQ potassium channel) | DRSC06121 | 91398 | 54454 | – | 2677 | 5405 | inactive |
| KCNQ (KCNQ potassium channel) | DRSC06230 | 92377 | 50321 | – | 2585 | 4052 | inactive |
| exd (extradenticle) | DRSC20330 | 63309 | 1.55e5 | – | 1817 | 6758 | inactive |
| Ir94g (Ionotropic receptor 94g) | DRSC15231 | 7.16e5 | 1.41e5 | – | 36756 | 3188 | inactive |
| CG9184 | DRSC08636 | 1.53e5 | 6.36e5 | 53232 | 5186 | 43708 | inactive |
| cN-IIIB (cytosolic 5'-nucleotidase IIIB) | DRSC04359 | 89095 | 59002 | – | 3913 | 2243 | inactive |
| cpa (capping protein alpha) | DRSC04080 | 65115 | 39498 | – | 2570 | 1558 | inactive |
| CR18275 + CG13373 | DRSC17900 | 1.05e5 | 1.76e5 | – | 2945 | 7041 | inactive |
| CG32603 | DRSC19409 | 1.20e5 | 3.21e5 | – | 2044 | 14216 | inactive |
| CG4210 | DRSC15551 | 82417 | 83306 | – | 3058 | 2674 | inactive |
